The results are deposited in PubChem (AID912; NCATS, 2007).

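A cell-based FRET test of anthrax lethal toxin entry, tracked through the 460 nm emission signal; the cell line is not named here. Each compound was tested as a concentration series from about 0.0005 to 40 µM. The number is the fitted AC50 of the 460 nm signal alone; lower values mean a more potent effect. A falling signal goes with compounds filed as inhibitors or cytotoxic, a rising one with activators or fluorescent compounds (inferred from the filed classes).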

Values are in µM. Common to all entries: measured here: 460 nm channel. This is a side read-out of the assay, for part of the compounds, not drawn at random. Potencies fitted to partial, single-point or poorly fitting curves are rough. The first word of each remark tells which way the curve ran; it can be opposite to the aim of the assay.

structure,AC50 (µM),curve
Nc1ccc(Cc2ccc(N)c(Cl)c2)cc1Cl,15.85,"falling, partial curve"
Cc1cc(CNC(=O)[C@H](C)[C@H]2C[C@]2(C)[C@H](NC(=O)OCc2ccccc2)c2ccccc2)nn1C,15.85,"rising, single point"
CC(C)OCCCn1c(=S)[nH]c2ccc(N3CCOCC3)cc2c1=O,5.012,"rising, partial curve"
Clc1ccc(Cl)c(Nc2ccnc(SCc3ccccc3)n2)c1,3.162,"falling, partial curve"
Cc1ccc(S(=O)(=O)N(C)CCCC(=O)N2CCN(c3ccccn3)CC2)cc1,5.012,"rising, partial curve"
COc1ccc(C(=O)CSc2nnc(CNc3ccc(C)cc3C)n2Cc2ccco2)cc1,12.59,"falling, single point"
Cc1oc(-c2cccc(Cl)c2)nc1CN1CCCC(C(=O)NCCCN2CCOCC2)C1 (stereo unspecified),31.62,"falling, partial curve"
N#Cc1c(N)n(CCCN2CCOCC2)c2nc3ccccc3nc12,10,"rising, partial curve"
O=C(c1cccc(F)c1)N1CCC2(CC1)CCN(c1ccccc1)CC2,7.943,"rising, partial curve"
O=c1c(-c2cccc(F)c2)nc2cncnc2n1Cc1ccc(F)cc1,12.59,"rising, single point"
CC[C@@H]1CN2CCc3cc(OC)c(OC)cc3[C@H]2C[C@@H]1C[C@@H]1NCCc2cc(O)c(OC)cc21,0.07943,"falling, full curve"
CC(C)COC(=O)Cn1cnc2ccc(Br)cc2c1=O,0.3162,"falling, full curve, poor fit"
CN(C)c1ccc(-c2noc(C3CCN(S(=O)(=O)c4cccc(Cl)c4)CC3)n2)cc1,1.995,"falling, single point"
Cc1cc(-c2ccc(N=Nc3cc(S(=O)(=O)O)c4ccccc4c3N)c(C)c2)ccc1N=Nc1cc(S(=O)(=O)O)c2ccccc2c1N,15.85,"falling, partial curve"
O=C(O)c1c[nH]c2ccc(S(=O)(=O)N3CCN(c4ccc(F)cc4)CC3)cc2c1=O,12.59,"rising, single point"
O=c1oc2c(CN3CCOCC3)c(O)ccc2c2c1CCCC2,3.981,"falling, single point"
CCCCNC(=O)CN(C1CCCCC1)S(C)(=O)=O,0.1259,"falling, full curve, poor fit"
NC[C@@H]1O[C@H](c2ccccc2)Cc2c1ccc(O)c2O,31.62,"falling, partial curve"
COc1cc(C(=S)N(C)C)ccc1O,0.0631,"falling, full curve, poor fit"
O=C(CCCC(=O)OCC(=O)NC1CCCC1)Nc1ccccn1,6.31,"rising, partial curve, poor fit"
COC(=O)c1cc(S(=O)(=O)n2nc(C)cc2C)c(Cl)cc1Cl,0.03981,"rising, full curve"
COc1ccc(N2C(=O)CC(Sc3nnc(-c4ccccc4)o3)C2=O)cc1 (stereo unspecified),12.59,"falling, partial curve"
Cc1ccccc1OCC(=O)Nc1ccc2c(c1)OCO2,5.012,"rising, single point"
COc1ccccc1-n1c(O)c(C=Nc2c(C)n(C)n(-c3ccccc3)c2=O)c(=O)[nH]c1=O,25.12,"rising, single point"
CCN(CCNC(=O)C1CCN(Cc2nc(-c3ccc(Cl)cc3)oc2C)CC1)c1ccccc1,10,"falling, single point"
O=c1oc2ccccc2cc1NCc1ccccc1O,10,"falling, partial curve"
OCc1ccncc1.OCc1ccncc1.[Cl][Pt]([Cl])([Cl])[Cl],0.631,"falling, partial curve"
CCCCCCCCCCCCC/C=C\[C@@H](O)[C@@H](N)CO,0.001,"rising, full curve"
COc1ccc(C(=O)N2CCC[C@@]3(CCN(c4ccccn4)C3)C2)cc1,19.95,"rising, single point"
COc1cccc(Cn2c(=O)c(-c3cc(F)cc(F)c3)nc3cnc(N(C)C)nc32)c1,0.5012,"rising, full curve"
COc1ccc(S(=O)(=O)Cc2ccc(C(=O)NCc3ccc(F)cc3)o2)cc1,25.12,"falling, partial curve"
COC(=O)[C@@]1(Cc2ccc(OC)cc2)[C@H]2c3cc(C(=O)N(C)C)n(CCc4c[nH]c5ccc(O)cc45)c3C[C@H]2CN1C(=O)c1ccccc1,12.59,"rising, single point"
CCCCCc1cc(O)cc(O)c1,31.62,"falling, partial curve"
NCCNC(=S)S,5.012,"rising, partial curve"
CCOC(=O)CC(=O)CSc1ccc2nnc(-c3ccc(F)cc3)n2n1,12.59,"rising, partial curve, poor fit"
COC(=O)[C@@]1(Cc2ccc(OC)cc2)[C@H]2c3cc(C(=O)N4CCCC4)n(Cc4cc(C)n(C)n4)c3C[C@H]2CN1C(=O)c1ccccc1,12.59,"rising, partial curve"
Cc1ccc(-c2noc(CSc3nnnn3-c3ccccc3)n2)cc1,12.59,"falling, partial curve"

Some entries from above, unchanged:

structure	AC50 (µM)	curve
COc1ccc(S(=O)(=O)Cc2ccc(C(=O)NCc3ccc(F)cc3)o2)cc1	25.12	falling, partial curve
CC(C)OCCCn1c(=S)[nH]c2ccc(N3CCOCC3)cc2c1=O	5.012	rising, partial curve